Laboratory results as given in PubChem BioAssay AID493014 (National Center for Advancing Translational Sciences (NCATS), 2011).
This is one part of the list. These are further read-outs of the screen, such as a control signal, another cell line or another target. No call is given for them. Most of these compounds were active or inconclusive in the main read-out, so they are no random draw. The note in brackets gives the kind of curve behind each potency; many fits are weak.

Test: qHTS Assay to Find Inhibitors of Chronic Active B-Cell Receptor Signaling
Conditions: ABC-DLBCL IkBa-CBG/CBR reporter, luminescence ratio (green luciferase fused to IkBa over red control in TMD8 lymphoma cells), 4 h
Method in brief: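 Cell line TMD8 (human ABC DLBCL), stably expressing tet-inducible CBG68-IkBa fusion and CBR; IMDM/0.5% FBS; cpd up to 46 uM; dox induction, 4 h, 37C/5% CO2; dual luminescence; green/red ratio; MG132 control.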

[1] = measured here: CBR red luminescence, cell number
[2] = measured here: IkBa-CBG green luminescence

Row | Compound | AC50 [1] | AC50 [2]
1 | CCCC(=O)Nc1ccc(NC(=O)c2ccccc2)nc1 | 8.91 µM [falling, partial curve] | –
2 | CCOC(=O)c1c(-c2ccccc2)csc1N1C(=O)Nc2ccccc2N1O | 20 µM [falling, partial curve, poor fit] | –
3 | Cc1nnc(SCC(=O)Nc2ccc(Cl)cn2)[nH]c1=O | 0.651 µM [falling, full curve, poor fit] | –
4 | Cc1ccc(CNC(=O)c2cc(-c3ccc(C)c(C)c3)nc3ccccc23)cc1 | 0.794 µM [rising, full curve, poor fit] | –
5 | COc1cc2c(cc1OC)-c1cc(Nc3cccc(F)c3)nc(=O)n1CC2 | 17.8 µM [rising, single point] | 10 µM [falling, partial curve, poor fit]
6 | Cn1c(SCC(=O)NNC(=O)Nc2ccccc2)nnc1-c1ccccc1 | 31.6 µM [rising, single point] | –
7 | O=S(Cc1ccccc1)CC(O)(c1ccc(Cl)cc1)c1ccc(Cl)cc1 (stereo unspecified) | 28.2 µM [falling, single point] | –
8 | COc1ccc(CCNC(=O)c2c[nH]c3ccccc3c2=O)cc1OC | 35.5 µM [falling, single point] | –
9 | COc1ccccc1CCNC(=O)Cn1ccc2cc(S(=O)(=O)N3CCC(C)CC3)ccc21 | 3.16 µM [falling, full curve] | –
10 | COC(=O)c1sc(NC(=S)NC(=O)c2ccccc2Cl)nc1C | 29.1 µM [falling, single point] | –
11 | CC(=O)Cc1nsc(NC(=O)c2ccc(-c3cc(Cl)ccc3Cl)o2)n1 | 35.5 µM [falling, single point] | –
12 | NCCCC[C@H]1CNC(=O)C(=O)N1CCc1cccc2ccccc12 | 35.5 µM [rising, single point] | –
13 | N#Cc1ccc(-c2csc(NC(=O)c3ccc(N4C(=O)CCC4=O)cc3)n2)cc1 | 1.26 µM [falling, full curve, poor fit] | –
14 | CC(=O)c1cccc(NC(=O)c2cccc(NC(=O)c3ccco3)c2)c1 | 3.98 µM [rising, full curve] | –
15 | CCOC(=O)c1nc[nH]c1C | 1.84 µM [falling, partial curve] | –
16 | CCCCc1cc(=O)oc2c(C)c(OCC(=O)N3CCC(C(=O)O)(c4ccccc4)CC3)ccc12 | 10 µM [falling, partial curve, poor fit] | –
17 | COc1ccc(-c2csc(NC(=O)c3ccco3)n2)cc1 | 0.517 µM [rising, partial curve, poor fit] | –
18 | CCN1CCN(c2nc(Nc3cccc(OC)c3)nc(N)c2[N+](=O)[O-])CC1 | 11.2 µM [falling, partial curve] | –
19 | COc1ccccc1CCn1cnc2c3cc(C)ccc3n(C)c2c1=O | 0.891 µM [falling, full curve, poor fit] | –
20 | COc1ccc(-c2nc(-c3cccnc3)no2)cc1 | 12.6 µM [falling, single point] | –
21 | CCCN(CCC)c1c([N+](=O)[O-])c(=O)oc2ccccc12 | 16.4 µM [falling, partial curve, poor fit] | –
22 | Cc1cc(Br)ccc1NC(=O)c1sc2ncnc(N3CCN(c4ccccn4)CC3)c2c1C | 6.31 µM [falling, single point] | –

Structural class: the compounds so far with an aryl thioether with sulfur outside any ring.
Row | Compound | AC50 [1] | AC50 [2]
3 | Cc1nnc(SCC(=O)Nc2ccc(Cl)cn2)[nH]c1=O | 0.651 µM [falling, full curve, poor fit] | –
6 | Cn1c(SCC(=O)NNC(=O)Nc2ccccc2)nnc1-c1ccccc1 | 31.6 µM [rising, single point] | –

Additional entries follow:

Row | Compound | AC50 [1] | AC50 [2]
23 | Cc1cc(C)c2c(c1)/C(=N/NC(=S)Nc1ccc(F)cc1)CCC2 | 0.291 µM [falling, full curve, poor fit] | –
24 | CCN1c2ccc(S(=O)(=O)N3CCOCC3)cc2N(Cc2ccc(OC)cc2)C1C (stereo unspecified) | 8.91 µM [rising, partial curve, poor fit] | –
25 | CCCCCCOC(=O)c1ccccc1NC(=O)/C=C/C(=O)O | 0.562 µM [rising, partial curve, poor fit] | –
26 | Cc1ccc(CN(C)C(=O)C2CCN(C(=O)Nc3ccccc3)CC2)o1 | 14.6 µM [rising, partial curve] | –
27 | O=C(O)Cc1sc(Nc2cccc3ccccc23)nc1-c1ccc(Cl)cc1 | 15.8 µM [falling, partial curve, poor fit] | –
28 | Cn1c(COc2ccccc2Br)nc2ccccc21 | 5.62 µM [rising, single point] | –
29 | COc1ccc(CN(C)C(=O)CCN2C(=O)c3ccccc3C2=O)c(OC)c1OC | – | 7.08 µM [falling, partial curve, poor fit]
30 | O=C(Nc1ccc(NC(=O)c2sc3ccccc3c2Cl)cc1)c1ccco1 | 2.91 µM [rising, full curve, poor fit] | –
31 | Cc1cccc(C(=O)N/N=C/c2ccoc2)c1 | 15.8 µM [falling, partial curve, poor fit] | –
32 | COc1ccc(-c2ccc(-c3noc(C)n3)c(OC)n2)cc1 | 20.6 µM [rising, single point] | –
33 | Cc1cccc2sc(NC(=O)CCNS(=O)(=O)c3cccc4nonc34)nc12 | 15.8 µM [falling, partial curve, poor fit] | –
34 | COc1ccccc1NC(=O)C1=C(C)NC(SCC(=O)Nc2ccc(C(=O)O)cc2)=C(C#N)C1c1cccs1 (stereo unspecified) | 7.94 µM [falling, partial curve] | –
35 | COc1ccccc1N1CCN(C2CCN(C(=O)COc3ccccc3)CC2)CC1 | 35.5 µM [rising, single point] | –
36 | Fc1ccc(-c2nc3ccncc3[nH]2)cc1 | 18.4 µM [falling, single point] | –
37 | N#Cc1ccc(C(=O)Nc2nnc(-c3ccccn3)o2)cc1 | 2.91 µM [falling, full curve] | –
38 | COC(=O)C(CCSC)NC(=O)c1cc2c(n(-c3ccc(C)cc3)c1=O)CCCC2=O (stereo unspecified) | 12.6 µM [rising, single point] | 12.6 µM [falling, single point]
39 | CN(CC(=O)Nc1ccccc1Cl)C(=O)CSc1nc2ccccc2s1 | 2.59 µM [rising, full curve, poor fit] | –
40 | Cc1sc2ncnc(N3CCC(C(=O)NNC(=O)COc4ccccc4Cl)CC3)c2c1C | 16.4 µM [falling, single point] | –
41 | COc1ccc2c(CC(=O)OCC(=O)NC(=O)c3cccn3C)coc2c1 | 8.91 µM [rising, partial curve, poor fit] | –
42 | NC(=S)NNc1ccnc2cc(Cl)ccc12 | 7.08 µM [rising, partial curve] | –
43 | O=C1NC(c2ccccc2)=C(c2nc3ccccc3s2)C(c2ccccc2)N1 (stereo unspecified) | 11.2 µM [falling, partial curve, poor fit] | –
44 | COCCN(C(=O)CSc1nnc(C)n1Cc1ccccc1)c1c(N)n(Cc2ccccc2)c(=O)[nH]c1=O | 17.8 µM [rising, single point] | –

Given field by field: part of the list above
CCN1CCN(c2nc(Nc3cccc(OC)c3)nc(N)c2[N+](=O)[O-])CC1
  AC50 [1]: 11.2 µM [falling, partial curve]
COCCN(C(=O)CSc1nnc(C)n1Cc1ccccc1)c1c(N)n(Cc2ccccc2)c(=O)[nH]c1=O
  AC50 [1]: 17.8 µM [rising, single point]

The results go on:

Row | Compound | AC50 [1] | AC50 [2]
45 | N#Cc1ccc(-c2ccco2)nc1SCc1ccccc1 | 10 µM [rising, partial curve] | –
46 | O=C(NC1CCCCC1)N1CCCCCC1 | 35.5 µM [falling, single point] | –
47 | Cc1cc(C)n(-c2nc3ccccc3nc2Nc2ccc3[nH]c(=O)[nH]c3c2)n1 | 0.517 µM [falling, full curve, poor fit] | –
48 | CCOC(=O)c1[nH]c(C)c(C(=O)N2CCOCC2)c1C | 0.13 µM [falling, full curve, poor fit] | –
49 | O=C(O)CSc1cc(C(=O)c2cc(F)ccc2O)cn2c(=O)c3c(-c4ccccc4)csc3nc12 | 0.562 µM [falling, full curve, poor fit] | –
50 | COc1ccc(-n2c(CN3CCC(C)CC3)nc3ccc([N+](=O)[O-])cc3c2=O)c(OC)c1 | 7.08 µM [falling, partial curve, poor fit] | –
51 | N/C(Cc1ccc(Cl)cc1)=N\OC(=O)c1ccccc1 | 0.411 µM [rising, partial curve, poor fit] | –
52 | Cc1ccccc1NS(=O)(=O)c1ccc2[nH]cc(C(=O)NCCc3ccccc3)c(=O)c2c1 | 16.4 µM [falling, single point] | –
53 | C=CCNC(=S)/N=c1\sccn1C | 4.47 µM [rising, partial curve, poor fit] | –
54 | CCn1nc(C(=O)Nc2ccc3nc(C)sc3c2)c2ccccc2c1=O | 8.2 µM [rising, partial curve, poor fit] | –
55 | CCC(C)(C)n1nnnc1C(c1cc2cc3c(cc2[nH]c1=O)OCO3)N1CCN(C)CC1 (stereo unspecified) | 12.6 µM [falling, partial curve, poor fit] | –
56 | COc1ccc(C)cc1-n1c(N)c(C#N)c(C#N)c1-c1ccc(OC)c(OC)c1OC | 18.4 µM [falling, single point] | –
57 | COC/C=C/C1=CC2=CC(=O)C(C)(OC(=O)CCC(=O)OC)C(=O)C2=CO1 (stereo unspecified) | 35.5 µM [rising, single point] | –
58 | COc1cc(Cn2c(C(=O)O)cc3sccc32)cc(OC)c1OC | 29.1 µM [rising, single point] | –
59 | NC(=O)c1ccc(-n2nnnc2Oc2ccccc2C(=O)N2CCOCC2)cc1 | 1.16 µM [falling, full curve] | –
60 | CCCCS/C(N)=N/N=C/c1cc(C)ccc1O | – | 18.4 µM [falling, single point]
61 | O=C(CCCC(=O)c1ccccc1)NCc1ccccc1 | 17.8 µM [rising, single point] | –
62 | COC(=O)c1c(C#N)c(N)nc2c1CCCC2 | 0.794 µM [falling, full curve, poor fit] | –
63 | CC(=O)NNc1ncnc2c1cnn2-c1ccccc1 | 7.08 µM [falling, partial curve, poor fit] | –
64 | CN(C)CCCNC(=O)/C(=C\c1ccc(-c2ccc(Br)cc2)o1)NC(=O)c1ccccc1 | 32.6 µM [falling, single point] | –
